Literature values as cited in publication PMC9673116 (Poultry Science, 2022).

System: chicken BCRP
Details: ref Zhang et al., 2018; cited from earlier work

CCC[C@@H]1C[C@@H](C(=O)N[C@@H]([C@H]2O[C@H](SC)[C@H](O)[C@@H](O)[C@H]2O)[C@H](C)Cl)N(C)C1 [clindamycin]
Transport by chicken BCRP: actively transported
